For this data set, the system named is Thrombin. Kind of data set: Thrombin limited proteolysis. Type of data set: biochemical.

B1: N-PTB: N-terminal phosphotyrosine binding domain (residues 1-241) of human Disabled-2 (Dab2), expressed as GST-fusion in E. coli (protein)
chain: MSNEVETSATNGQPDQQAAPKAPSKKEKKKGPEKTDEYLLARFKGDGVKYKAKLIGIDDVPDARGDKMSQDSMMKLKGMAARGRSQGQHKQRIWVNISLSGIKIIDEKTGVIEHEHPVNKISFIARDVTDNRAFGYVCGGEGQHQFFAIKTGQQAEPLVVDLKDLFQVIYNVKKKEEEKKKIEEASKAVENGSEALMILDDQTNKLKSGVDQMDLFGDMSTPPDLNSPTESKDILLVDLNS
Consider B1, for which the thrombin cleavage entry reads like this: (pre-incubated with PtdIns(4,5)P2 liposomes) “did not protect the PTB domain from thrombin cleavage”; (pre-incubated with sulfatide-enriched liposomes) “protected bound N-PTB from thrombin cleavage”; (protein alone) “cleaved”.

The record behind these values is US20100285583A1, “COMPOUNDS AND METHODS FOR INHIBITING PLATELET AGGREGATION” (priority 2009, published 2010).
